± gives the standard deviation of the averaged measurements. Some of the results follow.

Sequences of proteins named here, by UniProt entry; tags and fusion partners are left off. A change or cut given only in a name is not applied to a line headed by its entry.
UniProt O14662: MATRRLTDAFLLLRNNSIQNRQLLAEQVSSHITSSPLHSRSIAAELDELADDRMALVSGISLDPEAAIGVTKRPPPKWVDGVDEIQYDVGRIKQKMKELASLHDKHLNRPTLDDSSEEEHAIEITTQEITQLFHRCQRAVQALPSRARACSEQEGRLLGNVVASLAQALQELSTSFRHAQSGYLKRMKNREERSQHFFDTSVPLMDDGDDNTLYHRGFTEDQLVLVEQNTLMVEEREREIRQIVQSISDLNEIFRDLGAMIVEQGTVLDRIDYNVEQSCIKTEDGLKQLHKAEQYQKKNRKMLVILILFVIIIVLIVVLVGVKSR
UniProt Q13510, whole entry: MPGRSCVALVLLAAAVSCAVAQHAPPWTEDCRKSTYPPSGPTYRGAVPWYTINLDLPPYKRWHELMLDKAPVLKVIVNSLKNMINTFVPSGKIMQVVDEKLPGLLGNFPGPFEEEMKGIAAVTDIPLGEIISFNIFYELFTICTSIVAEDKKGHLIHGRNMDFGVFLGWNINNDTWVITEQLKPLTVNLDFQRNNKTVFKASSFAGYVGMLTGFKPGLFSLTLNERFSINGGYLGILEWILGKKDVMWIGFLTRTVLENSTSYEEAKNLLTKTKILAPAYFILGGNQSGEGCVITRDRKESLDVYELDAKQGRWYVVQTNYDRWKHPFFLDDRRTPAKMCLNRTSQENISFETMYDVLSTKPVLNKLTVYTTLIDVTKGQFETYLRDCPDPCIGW
UniProt Q9UL63, whole entry: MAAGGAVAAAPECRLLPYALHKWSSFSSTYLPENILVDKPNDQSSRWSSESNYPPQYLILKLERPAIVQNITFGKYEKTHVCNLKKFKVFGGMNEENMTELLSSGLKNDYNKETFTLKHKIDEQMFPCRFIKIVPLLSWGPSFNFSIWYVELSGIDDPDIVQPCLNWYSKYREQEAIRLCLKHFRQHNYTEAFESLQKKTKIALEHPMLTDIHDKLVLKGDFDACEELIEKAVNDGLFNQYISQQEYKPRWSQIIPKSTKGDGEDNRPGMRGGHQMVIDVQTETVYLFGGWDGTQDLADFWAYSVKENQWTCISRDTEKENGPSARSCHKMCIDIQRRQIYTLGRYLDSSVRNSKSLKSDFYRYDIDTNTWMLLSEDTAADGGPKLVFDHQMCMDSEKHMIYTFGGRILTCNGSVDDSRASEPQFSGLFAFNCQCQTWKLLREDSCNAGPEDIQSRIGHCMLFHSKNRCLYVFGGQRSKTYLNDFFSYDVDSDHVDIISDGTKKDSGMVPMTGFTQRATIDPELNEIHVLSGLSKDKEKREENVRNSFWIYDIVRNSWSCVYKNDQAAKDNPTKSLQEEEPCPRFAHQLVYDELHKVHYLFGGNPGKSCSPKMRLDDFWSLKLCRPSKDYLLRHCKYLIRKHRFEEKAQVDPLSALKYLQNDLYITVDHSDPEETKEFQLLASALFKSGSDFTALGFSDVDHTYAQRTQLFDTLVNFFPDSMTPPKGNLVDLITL
UniProt Q6NXR4: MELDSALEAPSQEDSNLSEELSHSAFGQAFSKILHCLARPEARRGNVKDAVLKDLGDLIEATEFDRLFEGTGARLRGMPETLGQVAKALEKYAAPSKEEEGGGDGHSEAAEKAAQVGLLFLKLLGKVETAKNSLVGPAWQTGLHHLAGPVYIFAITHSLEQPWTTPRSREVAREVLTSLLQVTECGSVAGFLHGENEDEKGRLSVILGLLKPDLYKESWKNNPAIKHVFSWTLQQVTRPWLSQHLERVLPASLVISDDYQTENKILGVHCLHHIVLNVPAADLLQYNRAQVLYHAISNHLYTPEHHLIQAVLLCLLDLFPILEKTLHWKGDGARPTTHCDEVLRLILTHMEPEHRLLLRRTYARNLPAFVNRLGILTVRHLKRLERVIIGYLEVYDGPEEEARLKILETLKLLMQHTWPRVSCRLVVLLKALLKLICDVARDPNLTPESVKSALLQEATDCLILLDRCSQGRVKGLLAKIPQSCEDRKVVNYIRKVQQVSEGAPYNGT
UniProt Q14919: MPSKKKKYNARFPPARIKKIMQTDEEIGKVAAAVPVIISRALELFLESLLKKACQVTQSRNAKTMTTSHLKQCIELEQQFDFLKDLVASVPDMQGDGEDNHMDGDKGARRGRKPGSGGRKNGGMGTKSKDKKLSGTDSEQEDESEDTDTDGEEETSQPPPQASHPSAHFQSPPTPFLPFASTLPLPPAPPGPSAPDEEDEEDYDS
UniProt Q15043: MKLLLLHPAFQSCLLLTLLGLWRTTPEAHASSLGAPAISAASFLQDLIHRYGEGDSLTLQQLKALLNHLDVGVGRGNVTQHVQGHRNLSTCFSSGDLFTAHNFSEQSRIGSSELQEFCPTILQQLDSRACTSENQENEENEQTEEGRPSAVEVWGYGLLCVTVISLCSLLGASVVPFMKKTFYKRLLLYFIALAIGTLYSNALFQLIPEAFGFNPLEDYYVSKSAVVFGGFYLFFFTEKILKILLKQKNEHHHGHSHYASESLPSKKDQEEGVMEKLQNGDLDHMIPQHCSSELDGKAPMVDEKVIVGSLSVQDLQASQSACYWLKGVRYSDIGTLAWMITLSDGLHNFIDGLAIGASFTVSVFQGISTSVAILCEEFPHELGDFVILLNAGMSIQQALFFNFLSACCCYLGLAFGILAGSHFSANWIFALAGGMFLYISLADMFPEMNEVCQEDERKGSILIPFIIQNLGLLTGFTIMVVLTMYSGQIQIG
UniProt Q969T9: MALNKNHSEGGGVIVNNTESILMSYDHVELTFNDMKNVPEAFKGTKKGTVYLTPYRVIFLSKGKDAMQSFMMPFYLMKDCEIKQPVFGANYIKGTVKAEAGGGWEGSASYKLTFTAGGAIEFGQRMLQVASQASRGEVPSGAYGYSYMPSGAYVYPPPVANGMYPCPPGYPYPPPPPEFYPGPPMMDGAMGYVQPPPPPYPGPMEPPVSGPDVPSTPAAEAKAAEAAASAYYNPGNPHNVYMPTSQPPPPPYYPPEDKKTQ
UniProt Q9P2W9: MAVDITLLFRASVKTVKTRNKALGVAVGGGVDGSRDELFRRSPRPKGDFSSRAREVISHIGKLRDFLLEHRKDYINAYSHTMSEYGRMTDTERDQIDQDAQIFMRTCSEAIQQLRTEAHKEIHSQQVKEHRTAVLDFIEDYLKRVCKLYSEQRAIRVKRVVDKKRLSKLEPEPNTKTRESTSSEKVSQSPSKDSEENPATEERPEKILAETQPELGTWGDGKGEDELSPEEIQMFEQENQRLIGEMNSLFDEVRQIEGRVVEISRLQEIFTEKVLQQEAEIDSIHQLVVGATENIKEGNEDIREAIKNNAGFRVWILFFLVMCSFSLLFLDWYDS
UniProt Q9NP97, whole entry: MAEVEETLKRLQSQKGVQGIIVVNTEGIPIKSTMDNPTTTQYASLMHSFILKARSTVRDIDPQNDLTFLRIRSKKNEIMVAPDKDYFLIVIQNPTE
UniProt Q9C0K0: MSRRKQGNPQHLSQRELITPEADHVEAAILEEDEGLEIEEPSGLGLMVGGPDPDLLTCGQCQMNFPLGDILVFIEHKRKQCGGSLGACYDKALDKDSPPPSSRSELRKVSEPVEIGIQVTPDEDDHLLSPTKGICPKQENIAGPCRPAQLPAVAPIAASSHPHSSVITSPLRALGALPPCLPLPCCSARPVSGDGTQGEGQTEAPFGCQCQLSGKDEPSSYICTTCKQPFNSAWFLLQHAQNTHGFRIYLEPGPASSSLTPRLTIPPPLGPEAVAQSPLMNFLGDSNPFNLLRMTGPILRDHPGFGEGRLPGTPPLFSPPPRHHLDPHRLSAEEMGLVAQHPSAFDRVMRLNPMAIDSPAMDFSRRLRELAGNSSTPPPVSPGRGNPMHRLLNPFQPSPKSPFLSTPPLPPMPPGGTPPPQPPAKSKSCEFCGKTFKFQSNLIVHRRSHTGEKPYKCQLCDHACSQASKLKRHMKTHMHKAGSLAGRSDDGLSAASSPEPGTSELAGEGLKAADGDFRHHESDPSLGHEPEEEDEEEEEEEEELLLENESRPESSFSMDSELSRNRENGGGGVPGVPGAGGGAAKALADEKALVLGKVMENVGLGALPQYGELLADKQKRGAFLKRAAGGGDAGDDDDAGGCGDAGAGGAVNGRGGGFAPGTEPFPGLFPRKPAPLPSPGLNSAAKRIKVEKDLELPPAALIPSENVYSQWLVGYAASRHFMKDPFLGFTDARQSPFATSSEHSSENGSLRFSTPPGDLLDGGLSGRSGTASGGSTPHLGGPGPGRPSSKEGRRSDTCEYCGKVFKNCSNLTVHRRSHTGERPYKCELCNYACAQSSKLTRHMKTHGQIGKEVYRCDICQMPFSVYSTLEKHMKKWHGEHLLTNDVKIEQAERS
UniProt Q7L5Y9: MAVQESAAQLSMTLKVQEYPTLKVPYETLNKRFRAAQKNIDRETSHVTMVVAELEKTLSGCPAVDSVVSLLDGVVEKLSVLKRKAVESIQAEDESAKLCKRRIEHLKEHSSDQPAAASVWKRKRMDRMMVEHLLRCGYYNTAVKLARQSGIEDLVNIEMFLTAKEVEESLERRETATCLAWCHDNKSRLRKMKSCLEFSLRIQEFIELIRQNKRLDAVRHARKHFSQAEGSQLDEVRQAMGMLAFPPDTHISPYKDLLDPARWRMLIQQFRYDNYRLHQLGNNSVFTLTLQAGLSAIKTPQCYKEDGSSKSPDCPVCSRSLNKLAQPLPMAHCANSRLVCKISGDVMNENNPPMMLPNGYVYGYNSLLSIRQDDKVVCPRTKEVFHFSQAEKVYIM

This note sets out measurements from the supplement of paper PMC6411743.

Compound in this assay: Nc1nc2c(ncn2[C@@H]2O[C@H](COP(=O)(O)OP(=O)(O)OP(=O)(O)O)[C@@H](O)[C@H]2O)c(=O)[nH]1 [guanosine triphosphate]
Description: NP40-soluble protein abundance relative to vehicle (solubility fold change) (ratio); higher = more soluble protein in presence of GTP. Summed up: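 Each value is a fold change relative to the detergent-processed vehicle, calculated per replicate from vsn-normalised intensities. Jurkat crude lysate received eight concentrations (0.1 to 10 mM) for 10 min at room temperature and 3 min at 37 °C, then was solubilised in 0.8% NP40 with benzonase (60 min, 4 °C). The ultracentrifuged supernatant was TMT-labelled and run by LC-MS/MS in three independent experiments.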

Turning to “B7ZBM8 and related entries (UniProt O14662)”, the NP40-soluble protein abundance by setting is: (concentration: 0.1mM) 0.991 ± 0.059; (concentration: 0.5mM) 0.9563 ± 0.0062; (concentration: 1mM) 1.011 ± 0.0054; (concentration: 2mM) 1.02 ± 0.018; (concentration: 4mM) 1.07 ± 0.029; (concentration: 6mM) 1.05 ± 0.048. Also, the NP40-soluble protein abundance worked out at 1.02 ± 0.13 (concentration: 8mM) and 1.07 ± 0.057 (concentration: 10mM).

Turning to “E7EMM4 and related entries (UniProt Q13510)”, the NP40-soluble protein abundance (concentration: 0.1mM) turned out to be 0.994 ± 0.015; the NP40-soluble protein abundance (concentration: 0.5mM) was found to be 0.951 ± 0.032; the NP40-soluble protein abundance (concentration: 1mM) worked out at 0.9658 ± 0.0049; the NP40-soluble protein abundance (concentration: 2mM) worked out at 0.947 ± 0.076; the NP40-soluble protein abundance (concentration: 4mM) turned out to be 0.974 ± 0.048; the NP40-soluble protein abundance (concentration: 6mM) worked out at 0.936 ± 0.056. In addition, the NP40-soluble protein abundance runs as follows: (concentration: 8mM) 0.955 ± 0.048; (concentration: 10mM) 0.959 ± 0.032.

With “A6NJD9 and related entries (UniProt Q16540)”, the NP40-soluble protein abundance (concentration: 0.1mM) was 1.06 ± 0.1; the NP40-soluble protein abundance (concentration: 0.5mM) turned out to be 1.11 ± 0.23; the NP40-soluble protein abundance (concentration: 1mM) was determined as 1.28 ± 0.22; the NP40-soluble protein abundance (concentration: 2mM) was found to be 1.29 ± 0.31; the NP40-soluble protein abundance (concentration: 4mM) came to 1.36 ± 0.41; the NP40-soluble protein abundance (concentration: 6mM) stood at 1.14 ± 0.35. For the same target, the NP40-soluble protein abundance (concentration: 8mM) was found to be 1.19 ± 0.32 and the NP40-soluble protein abundance (concentration: 10mM) was 1.2 ± 0.37.

For “C9J7E8 and related entries (UniProt Q9UL63)”, the NP40-soluble protein abundance is, setting by setting: (concentration: 0.1mM) 0.987 ± 0.071; (concentration: 0.5mM) 1.1 ± 0.084; (concentration: 1mM) 1.04 ± 0.093; (concentration: 2mM) 1.09 ± 0.14; (concentration: 4mM) 1.12 ± 0.17; (concentration: 6mM) 1.07 ± 0.19. Moreover, the NP40-soluble protein abundance is 1.15 ± 0.14 (concentration: 8mM) and 1.09 ± 0.13 (concentration: 10mM).

Regarding “E5RIH5 and related entries (UniProt Q6NXR4)”, the NP40-soluble protein abundance by setting is: (concentration: 0.1mM) 1.02 ± 0.014; (concentration: 0.5mM) 1 ± 0.045; (concentration: 1mM) 1.03 ± 0.062; (concentration: 2mM) 1.05 ± 0.065; (concentration: 4mM) 1.05 ± 0.015; (concentration: 6mM) 1.07 ± 0.032. In addition, the NP40-soluble protein abundance was 1.08 ± 0.058 (concentration: 8mM) and 1.11 ± 0.04 (concentration: 10mM).

Regarding “C9JCC6 and related entries (UniProt Q14919)”, the NP40-soluble protein abundance by setting is: (concentration: 0.1mM) 0.808 ± 0.16; (concentration: 0.5mM) 0.704 ± 0.098; (concentration: 1mM) 1.03 ± 0.18; (concentration: 2mM) 0.98 ± 0.089; (concentration: 4mM) 0.929 ± 0.1; (concentration: 6mM) 0.915 ± 0.12. The NP40-soluble protein abundance stood at 0.817 ± 0.18 (concentration: 8mM) and 1.06 ± 0.26 (concentration: 10mM).

Regarding “E5RFZ8 and related entries (UniProt Q15043)”, the NP40-soluble protein abundance (concentration: 0.1mM) amounted to 0.95 ± 0.22; the NP40-soluble protein abundance (concentration: 0.5mM) was found to be 0.969 ± 0.23; the NP40-soluble protein abundance (concentration: 1mM) was 0.952 ± 0.14; the NP40-soluble protein abundance (concentration: 2mM) worked out at 0.91 ± 0.15; the NP40-soluble protein abundance (concentration: 4mM) came out at 0.943 ± 0.2; the NP40-soluble protein abundance (concentration: 6mM) amounted to 0.866 ± 0.14. Moreover, the NP40-soluble protein abundance runs as follows: (concentration: 8mM) 0.898 ± 0.18; (concentration: 10mM) 0.916 ± 0.25.

Consider “A6NG10 and related entries (UniProt Q969T9)”, for which the NP40-soluble protein abundance was 0.94 ± 0.12 (concentration: 0.1mM); 0.936 ± 0.056 (concentration: 0.5mM); 0.856 ± 0.082 (concentration: 1mM); 0.881 ± 0.051 (concentration: 2mM); 0.866 ± 0.07 (concentration: 4mM); 0.843 ± 0.057 (concentration: 6mM). Further, the NP40-soluble protein abundance is, setting by setting: (concentration: 8mM) 0.823 ± 0.09; (concentration: 10mM) 0.848 ± 0.081.

Regarding “D6RF48 and related entries (UniProt Q9P2W9)”, the NP40-soluble protein abundance is, setting by setting: (concentration: 0.1mM) 1.05 ± 0.1; (concentration: 0.5mM) 1.02 ± 0.11; (concentration: 1mM) 1.1 ± 0.11; (concentration: 2mM) 1.07 ± 0.14; (concentration: 4mM) 1.1 ± 0.11; (concentration: 6mM) 1.01 ± 0.074. For the same target, the NP40-soluble protein abundance reads like this: (concentration: 8mM) 1.07 ± 0.11; (concentration: 10mM) 1.04 ± 0.12.

Consider “B1AKR6 and related entries (UniProt Q9NP97)”, for which the NP40-soluble protein abundance was found to be 0.951 ± 0.11 (concentration: 0.1mM); 0.89 ± 0.097 (concentration: 0.5mM); 1.02 ± 0.13 (concentration: 1mM); 1.02 ± 0.12 (concentration: 2mM); 1.1 ± 0.15 (concentration: 4mM); 1.01 ± 0.1 (concentration: 6mM). The NP40-soluble protein abundance is, setting by setting: (concentration: 8mM) 1.01 ± 0.089; (concentration: 10mM) 1.09 ± 0.13.

For “A8MQB8 and related entries (UniProt Q06787)”, the NP40-soluble protein abundance worked out at 1.05 ± 0.041 (concentration: 0.1mM); 1.15 ± 0.048 (concentration: 0.5mM); 1.05 ± 0.065 (concentration: 1mM); 1.24 ± 0.0061 (concentration: 2mM); 1.41 ± 0.093 (concentration: 4mM); 1.71 ± 0.037 (concentration: 6mM). Besides, the NP40-soluble protein abundance is, setting by setting: (concentration: 8mM) 1.8 ± 0.048; (concentration: 10mM) 2.1 ± 0.11.

As to “D3YTK1 and related entries (UniProt Q9C0K0)”, the NP40-soluble protein abundance was 1.02 ± 0.018 (concentration: 0.1mM); 1.05 ± 0.034 (concentration: 0.5mM); 1.19 ± 0.05 (concentration: 1mM); 1.21 ± 0.073 (concentration: 2mM); 1.31 ± 0.15 (concentration: 4mM); 1.3 ± 0.14 (concentration: 6mM). Also, the NP40-soluble protein abundance turned out to be 1.44 ± 0.16 (concentration: 8mM) and 1.43 ± 0.2 (concentration: 10mM).

Turning to “B4DQT1 and related entries (UniProt Q7L5Y9)”, the NP40-soluble protein abundance is 1.1 ± 0.099 (concentration: 0.1mM); 1.15 ± 0.14 (concentration: 0.5mM); 1.15 ± 0.19 (concentration: 1mM); 1.22 ± 0.2 (concentration: 2mM); 1.25 ± 0.19 (concentration: 4mM); 1.22 ± 0.22 (concentration: 6mM). Besides, the NP40-soluble protein abundance is 1.25 ± 0.21 (concentration: 8mM) and 1.19 ± 0.21 (concentration: 10mM).
